From patent publication US11766414B2, “Compositions, delivery systems, and methods useful in tumor therapy” (Indi Molecular, Inc., priority 2020, dated 2023)
For some of these results: For at least one compound, name, drawing or mass did not settle the structure. Some of these results come from one statement about several compounds together. Starred links: 1 amine or outer side, 2 acyl side, 3 side chain; linkers in the order of their positions; H or OH if unused. Positions of bridges follow the written chain, without caps; N, C: chain ends. Non-standard residues stand in square brackets, D forms with d. Residues, ends and D or L forms follow the SMILES beside them. Triazole bridges read from a SMILES are 1,4-linked. *: point of attachment. DOTA = O=C(O)CN1CCN(CC(=O)O)CCN(CC(=O)*)CCN(CC(=O)O)CC1; Pteroyl = Nc1nc2ncc(CNc3ccc(C(=O)*)cc3)nc2c(=O)[nH]1; Butanoyl(4-(4-MePh)) = Cc1ccc(CCCC(=O)*)cc1; Lys(N3) = [N-]=[N+]=NCCCC[C@H](N)C(=O)O; γGlu = O=C(O)[C@H](CCC(=O)[*:2])N[*:1]; AEEEA = NCCOCCOCCOCC(=O)O; Pra = C#CC[C@H](N)C(=O)O

Protein sequences, listed by entry. Tags and fused reporters are not part of them. Lines headed by an entry give the natural chain unless they say otherwise; changes in a name come on top. Residues count along the entry.
UniProt P08473: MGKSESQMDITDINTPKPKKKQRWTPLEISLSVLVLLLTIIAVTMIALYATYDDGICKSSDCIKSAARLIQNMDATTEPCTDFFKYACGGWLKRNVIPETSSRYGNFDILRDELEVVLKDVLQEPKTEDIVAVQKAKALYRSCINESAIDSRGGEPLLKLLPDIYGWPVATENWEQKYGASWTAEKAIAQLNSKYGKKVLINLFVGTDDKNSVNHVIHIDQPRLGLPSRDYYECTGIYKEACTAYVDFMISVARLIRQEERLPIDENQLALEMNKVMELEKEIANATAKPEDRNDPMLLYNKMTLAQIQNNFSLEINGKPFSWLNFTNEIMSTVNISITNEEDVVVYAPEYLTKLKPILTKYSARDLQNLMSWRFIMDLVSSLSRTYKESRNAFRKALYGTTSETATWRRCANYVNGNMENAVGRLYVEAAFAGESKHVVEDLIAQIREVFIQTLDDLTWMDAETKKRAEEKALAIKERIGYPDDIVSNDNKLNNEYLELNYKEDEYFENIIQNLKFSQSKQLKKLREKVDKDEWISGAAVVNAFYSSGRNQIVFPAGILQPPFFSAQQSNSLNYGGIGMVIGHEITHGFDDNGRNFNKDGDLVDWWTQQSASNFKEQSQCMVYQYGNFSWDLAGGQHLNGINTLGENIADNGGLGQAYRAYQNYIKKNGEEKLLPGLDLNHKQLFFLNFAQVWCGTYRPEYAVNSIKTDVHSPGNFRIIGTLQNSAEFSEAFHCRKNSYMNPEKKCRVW
UniProt P02768, 25-609: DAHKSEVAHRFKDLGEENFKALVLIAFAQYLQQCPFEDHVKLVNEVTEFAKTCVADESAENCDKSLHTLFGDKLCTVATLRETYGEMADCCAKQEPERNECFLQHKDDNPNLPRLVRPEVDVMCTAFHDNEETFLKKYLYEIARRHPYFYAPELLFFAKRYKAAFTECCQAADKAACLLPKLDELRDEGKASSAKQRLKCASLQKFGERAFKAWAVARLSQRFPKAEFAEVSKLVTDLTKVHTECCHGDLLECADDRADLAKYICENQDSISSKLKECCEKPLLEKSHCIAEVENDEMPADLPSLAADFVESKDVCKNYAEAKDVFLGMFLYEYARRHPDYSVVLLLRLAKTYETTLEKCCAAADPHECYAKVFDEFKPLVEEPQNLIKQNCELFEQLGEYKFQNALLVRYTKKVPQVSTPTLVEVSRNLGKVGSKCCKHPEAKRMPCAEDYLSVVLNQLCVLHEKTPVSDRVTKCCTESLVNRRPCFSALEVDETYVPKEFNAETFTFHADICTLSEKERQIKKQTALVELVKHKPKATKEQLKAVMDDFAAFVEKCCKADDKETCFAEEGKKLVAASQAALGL

What was measured:
human recombinant NEP = human recombinant NEP (Homo sapiens, UniProt P08473); assay: NEP enzymatic cleavage assay (MALDI, HPLC); format: biochemical; conditions: for in vitro Assay Data (NEP assay): Table 2
Protocol: In order to test the susceptibility of GFK and MVK linkers to NEP-mediated cleavage, the peptide (Folate-hshta-Lys(MPBA)-Gly-Phe-Lys(DOTA) (SEQ ID NO:6)) was incubated with human recombinant NEP and analyzed the solution for the presence of cleaved adducts. MALDI was utilized to monitor the cleavage of a PCC heterobiligand that contains a NEP protease recognizable sequence (G-F-K). The PCC concentration was constant and the NEP concentration was titrated down from 10 nM to 1 nM, 0.1 nM, 0.01 nM, and no NEP. The NEP-mediated cleaved adduct was identified by mass. 10 μM PCC containing the GFK linker was combined with varying amounts of NEP. […] Below 0.1 nM no cleavage was observed. • Folate-hshta-Lys(MPBA)-Gly-Phe-Lys(DOTA) (SEQ ID NO:6) • Molecular weight 2231.42
The NEP-mediated cleavage was also monitored by HPLC. In agreement with the MALDI spectra, the HPLC chromatograms show depletion of the parent brush-border heterobiligand (retention time 17.1 minutes), dose-dependent on the amount of NEP spiked into the sample (10 nM, 1 nM, 0.1 nM, 0.01 nM, and no NEP). An appearance of a new peak (retention time 16.5 minutes) in concert with the depletion of the starting material is presumed to be the cleaved folate-containing peptide.
In order to test the specificity of NEP, a non-cleavable linker (PEG3) was also assayed.
To reduce the radioactive dose to the kidney, Indi ^177Lu-7327 was constructed to incorporate a GFK linker that is susceptible to cleavage by enzymes found predominately in the kidney's brush border. These enzymes cleave off the radionuclide-chelator complex, which is quickly eliminated by the kidney for excretion in the urine. The zinc metalloprotease neprilysin (NEP) is expressed with high abundance in the kidney. […] To confirm NEP-mediated cleavage of the GFK linker in Indi 7327, the peptide was incubated with recombinant human NEP at 37° C. for 1 h and analyzed by matrix-assisted laser desorption/ionization mass spectrometry (MALDI-MS) for the evolution of cleaved adducts (FIG. 42). […]

human serum albumin = human serum albumin (Homo sapiens, UniProt P02768); conditions: WO 2011/095545; cited from earlier work

C[C@H](O)[C@H]1NC(=O)[C@@H](Cc2c[nH]cn2)NC(=O)[C@@H](CO)NC(=O)[C@@H](Cc2c[nH]cn2)NC(=O)[C@@H](NC(=O)CC[C@H](NC(=O)c2ccc(NCc3cnc4nc(N)[nH]c(=O)c4n3)cc2)C(=O)O)Cc2cn(nn2)CCCC[C@@H](C(=O)NCCOCCOCCOCC(=O)N[C@@H](CCCCNC(=O)CN2CCN(CC(=O)O)CCN(CC(=O)O)CCN(CC(=O)O)CC2)C(N)=O)NC(=O)[C@@H](C)NC1=O [compound 1189, Fol-hshta-PEG3-Lys(DOTA)] ({Pteroyl-γGlu}-[Pra][dH][dS][dH][dT][dA][Lys(N3)][AEEEA]K(DOTA)-NH2; triazole 1-7)
in vitro Assay Data (NEP assay) (human recombinant NEP): resistant to NEP

Cc1ccc(CCCC(=O)NCCCC[C@H](NC(=O)COCCOCCOCCNC(=O)[C@@H]2CCCCn3cc(nn3)C[C@H](NC(=O)CC[C@H](NC(=O)c3ccc(NCc4cnc5nc(N)[nH]c(=O)c5n4)cc3)C(=O)O)C(=O)N[C@H](Cc3c[nH]cn3)C(=O)N[C@H](CO)C(=O)N[C@H](Cc3c[nH]cn3)C(=O)N[C@H]([C@H](C)O)C(=O)N[C@H](C)C(=O)N2)C(=O)N[C@@H](CCCCNC(=O)CN2CCN(CC(=O)O)CCN(CC(=O)O)CCN(CC(=O)O)CC2)C(N)=O)cc1 [Compound #2809, folate-hshta-PEG3-Lys(MPBA)-Lys(DOTA)] ({Pteroyl-γGlu}-[Pra][dH][dS][dH][dT][dA][Lys(N3)][AEEEA]K(Butanoyl(4-(4-MePh)))K(DOTA)-NH2; triazole 1-7)
change when incubated with NEP (human recombinant NEP; MALDI and HPLC, with and without cleavable linker): unchanged | in vitro Assay Data (NEP assay) (human recombinant NEP): resistant to NEP

WWEQDRDWDFDVFGGGTP [Compound 89D03]
Kd (human serum albumin): ≤ 20 nM
